Reference: PubChem BioAssay AID1508600 (Functional Genomics Laboratory (NCATS/FGL), 2020)
About 3,700 (7%) of roughly 53,000 sequences were called active.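 Rule for the calls: active = gene knockdowns whose robust z-score for IL-1 alpha signal is at least 2 or at most -2, so actives lie on both sides; inactive = the rest.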 Some of the results follow.

Assay: Components of the Cytosolic LPS Sensing Pathway: Gene Identification via Genome-wide siRNA Screen;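 note: robust z of the log signal after scaling to non-targeting control siRNA wells of the plate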
Conditions: RAW264.7 macrophages, IL-1a HTRF, actives lie on both sides, screened at 100 nM (by protocol), cells primed 5 h with Pam3CSK4 first
How it was run: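 Mouse macrophage line RAW264.7 is transfected with siRNA (100 nM final), grown 48h, primed with TLR ligand Pam3CSK4 5 h and given intracellular LipidA 24 h. IL-1a in supernatant is read by HTRF and viability by luminescence.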

Sequence	z-score
CCUAUCCCAAUGAGGAGAATT against Lman2l	inactive: -0.195
GCUAUAUCAGCAGAAUGGCTT against Sun5	inactive: -1.18
GGGUUUUCCGCAUCUUCAATT against Kcna3	inactive: 1.23
GGUUCGUUUUCAACUGGCGTT against Ppp1r35	inactive: 0.778
CCCUGUGUUCACGUUUUACTT against Mrps33	inactive: 1.92
CCAGAUGUUGGAUAAAACGTT against Fbxw10	inactive: -0.333
GGUGAACAAUCUUUUCCAGTT against Fam221b	inactive: -0.921
GCCAAUGCAGGGUAAGUACTT against Tmtc2	active: -2.83
GGAAGCUACAGCAACAUAATT against Magi2	inactive: -1.36
CCUGCUAUUUCUAUAUAACTT against Csgalnact2	inactive: 1.29
GGACUUGAGUCUUUGUGGATT against Atp6v0e2	inactive: -1.9
CCCACAGUACAUUCUAAAATT against Arsb	inactive: 0.776
CGUGAAUGACCUAGCUGAGTT against Spr	inactive: -1.9
AACAGUGCUUUGUGCCAUGTT against Mageb3	inactive: -0.327
CCGAGAAAUGCUAUGAAUGTT against Zfp105	inactive: 0.148
GCAAAAAUUCAACAUCCUGTT against Fbxo4	inactive: 0.575
CCAUGAUGAUAAUCUGAAUTT against Wdr25	inactive: 0.437
GCAAAGGCCAAAUAUGAGGTT against Dbil5	active: -2.71
GGUCUUUUUCUCUUUGCAUTT against Pcdh10	inactive: 0.512
GGGAUUGAUUUCAACAAUGTT against Vmn1r33	inactive: 0.464
GGACCUUGGAUAUAAAGGUTT against Slc25a44	inactive: 0.14
GCUGAAUGGUCUUGUUACATT against Zfp658	inactive: 1.4

Sequence	z-score
GGAGAAUGUGGCUUCCUGATT against Clec2h	inactive: 0.224
CGCAUUUCAUCGAAUGGAATT against Nlgn2	inactive: -0.172
GGCAACGGUGAAACUAGACTT against Sh3bp5	inactive: 1.21
GGUUUAUUUCCAAAGUUGATT against Rab3gap1	inactive: 0.54
GGCUCAGUCUCAGGUGUUCTT against Calhm6	inactive: 1.71
GCCAUGGGUCUCAGAAAGATT against Zxda	inactive: -0.247
GGAACUAGAAGGUGUUUUATT against Ythdf1	inactive: 0.41
GGGUUUUCUUGUGUGAAAATT against Pomp	active: -2.93
CCUUGGAACCUUUAGUUAATT against Rnf181	inactive: -0.626
GCUGAUGUUAAAUUCGCAGTT against Serpinb3b	inactive: 1.33
GGCCUUUGCUCUAAACAGCTT against Rdm1	inactive: 0.812
GAGAUGGAUGGAAAAAAAATT against Klk1b7-ps	inactive: -1.52
GGAAGGACAUAUUAUCUUGTT against Mga	inactive: -0.141
AGACUGUAAAAGUCUUGUCTT against Ftl2-ps	inactive: 0.0707
GGGCAACGAGCUGUUCAAATT against Unc45a	inactive: 1.71
GGUGAGAUUACUGAAAGAATT against Plod2	inactive: -0.0899
CCAAUAAUGGAAGAACCUCTT against Zzz3	inactive: -0.64
GGAUGUACCCUUAAUAAACTT against Gabra5	inactive: 0.766
GAAUGUCAGAACCAUCCUCTT against Cdc34	inactive: -0.449
GCCUUCGAUAAAGUUUUCCTT against Sult2a2	inactive: 0.426
CCUGAAAGAAAAGAAGGACTT against Ptms	inactive: 0.107
GCAGAUGAGAGGAUCCUUATT against Nfatc2	inactive: 0.192

Sequence	z-score
GGACGUAGAAAUGAAACCATT against Tdrd12	inactive: -1.53
GGAAAAGUUGGACUUUUAUTT against Wdr44	inactive: -0.53
GGAGAUCUUAGAGAAAUUATT against Pak1	inactive: -0.956
GGUUAUAAAAAACAACCUGTT against Cpne3	inactive: 1.42
GGUUAAAACGAGCAACGUGTT against Trmt44	inactive: -0.484
GCCUUUAAGCAUGAUCCUGTT against Rrp1	inactive: -1.17
GGCAAAUUCUGGAUCUGCUTT against Marf1	inactive: -0.267
GUUGUUGCUGGACUUCUUGTT against Olfr1443	inactive: -1.17
GGUCUCAGAGUACAUUUCCTT against Pde4a	inactive: -0.593
CGACGACUAGACCUCAUCUTT against Dtx4	inactive: -0.624
CGCACUUCAAGUUUAAUUGTT against Mmab	inactive: -0.818
GGUGAAAUCAGAAUUUGCGTT against Defb23	inactive: 0.453
GGUGUGGCUGUUCUGAUGATT against Olfr771	inactive: 0.322
GGUGUUCAUGAGUGCUAUATT against Atg10	inactive: -0.172
GGACAGACGGUCUUCUAUATT against Znrd1	inactive: -0.322
GGAAUGACGUGGUGUAUCATT against Ccdc93	inactive: 0.199
GGGAGAACCUGGCAUUCCUTT against Col23a1	inactive: 0.422
CCACUAAAAUUGACAAUGATT against Plxna1	inactive: -1.66
GCUGCACUGACAUAGGAGUTT against Btnl2	inactive: -0.16
GGAAACUUACAAACUGCCGTT against Bhlhe40	inactive: 1.25
CAUAAUCUGCACUACAAGCTT against Olfr309	inactive: -0.964
GGAAUCUGUGUAUAAUCUUTT against Dst	inactive: 1.59

Sequence	z-score
GGAGGUUUUCCGAAGUAUUTT against Pnpt1	inactive: 1.2
GCGCGUCAUCUUCUGACUUTT against Mmgt2	inactive: 1.45
GGAUUUAGAUCACUUGGAGTT against Tmem68	inactive: -0.811
GGAUAUCCUUUCAAUAGAATT against Mcf2	inactive: -0.225
GGUAUUUACCAUUAGCAGGTT against Tmem229b	inactive: 0.76
GGCUGUAGUCAUAAGCACUTT against Ppp1r11	inactive: 0.316
GGAGAAAUCCGUCUGACCATT against Pcdhb12	inactive: 0.137
GGUGUACAGCUGUGACCUGTT against Chn1	inactive: -0.387
CGACUCAACUUCUCCCAUGTT against Pklr	inactive: -1.93
CCCAACCUCAAUGAAACUATT against Arfip2	inactive: -0.369
GGAAAUUGAUAAAGACAGATT against Fam204a	inactive: -0.165
GCUGCAUGAAGGUGCUAAATT against Pcmt1	inactive: 1
GGAUACACAAACCAAAAGUTT against Ccdc90b	inactive: 0.265
GGAAUUGCUGAGGCACUUCTT against Nfkbia	inactive: -0.0809
GGAACAAUCACUCUUUGGCTT against Olfr123	inactive: 0.151
GGCCACUAUAACUGAUCCGTT against Tlcd4	inactive: 0.461
GGCUAUGAUGAUUAUAAUGTT against Hnrnph1	inactive: 0.724
GGUGGUUUUGCUUUCUGUCTT against Tmem229a	inactive: 0.522
GGUGUGCUAUACAUUAAGATT against Zgrf1	inactive: 0.848
CCAGAUUCCUCUUGGCCGATT against Spryd7	inactive: 0.36
CCUACGAGUUGUUAAGGACTT against Pdzd7	inactive: -0.78
GCAAUCAUUGAAUCCACUCTT against Spag9	active: 2.16

In another format: results already given

| Sequence | z-score |
| --- | --- |
| GGAGAAUGUGGCUUCCUGATT against Clec2h | inactive: 0.224 |
| CGCAUUUCAUCGAAUGGAATT against Nlgn2 | inactive: -0.172 |
| GGCAACGGUGAAACUAGACTT against Sh3bp5 | inactive: 1.21 |
| GGUUUAUUUCCAAAGUUGATT against Rab3gap1 | inactive: 0.54 |
| GGCUCAGUCUCAGGUGUUCTT against Calhm6 | inactive: 1.71 |
| GCCAUGGGUCUCAGAAAGATT against Zxda | inactive: -0.247 |

(list continues)

Sequence	z-score
GCGGCAUAAGUCCAAGCACTT against Cdk12	inactive: -0.765
GCAGGCAAGGUAUACUUGATT against Cbfb	inactive: 0.138
CCGGAAUAUCCACUAUAAUTT against Otud5	inactive: 1.16
GGACUUUACAGACACUUUUTT against Kdm1b	inactive: -1.57
GGAUUUCCUUGGUUCUUUUTT against Mylip	inactive: 0.145
GCUAAGCGGAAUGCACUCGTT against Cxcl5	active: -2.23
CCGGGUACAGUCUUUUUGGTT against Zfp764	inactive: 0.778
GGCCCUAAUGCAUGUGUACTT against Gp9	inactive: -0.0585
GGAAUUAUAAAAGACCACGTT against Kctd12b	active: 2.39
GGAAUGGUUAGAGUUCUUUTT against Ercc2	inactive: 0.285
CCCAUGCUAUCAAUCAUUUTT against Olfr308	active: 2.51
GGGAAGCACAAGGUUUAGUTT against Brca1	inactive: 0.531
GCGCUUACCGAACAACUGATT against Tmprss13	inactive: -0.497
GGGCAUCAUUAAAAGGAAATT against Rnf215	inactive: 0.0844
GGAAACACUGAAAAAGAAUTT against Casp2	inactive: 0.111
GGAAGAUUGCAUUUUGAGATT against Akap3	inactive: -1.13
GGAGAGUACAGACACUGAGTT against Masp2	inactive: -0.22
GGAUGGAUGUUUGCAUAAATT against Msx2	active: 5.06
CCACCGUUUCGUACAUAAATT against Gcat	inactive: -0.168
